PubChem BioAssay AID493246 | Drosophila RNAi Screening Center | 2011
The screen tested about 21,000 reagents; below is a random part of those that have a named target and a result. Of all reagents, 429 (2%) got an active call. 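Values are raw and not normalised between plates; calls rest on per-plate z-scores that were not deposited.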 Reagents against one gene are numbered here. Not given: the amount of reagent, the time to read-out.

Purpose: 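Genes fly cells need to grow and stay alive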 (primary screen)
Cell system: Drosophila Kc and S2R+ cells
Reagents: long dsRNA against Drosophila genes
Detection: 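Cell number per well after knock-down, printed as raw plate values; calls were based on per-plate z-scores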
Reading the numbers: Kc cell number and S2R+ cell number: higher = more cells remaining
Call rule: 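Active when the per-plate z-score of cell number is 3 or more in the direction of fewer cells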

| gene | dsRNA no. | Kc cell number, rep 1 | Kc cell number, rep 2 | S2R+ cell number, rep 1 | S2R+ cell number, rep 2 | call |
| --- | --- | --- | --- | --- | --- | --- |
| fz3 (frizzled 3) | 1 | 1.47e6 | 1.46e6 | 9.90e5 | 1.13e6 | inactive |
| CG14043 | 1 | 1.44e6 | 1.39e6 | 1.09e6 | 1.23e6 | inactive |
| qless | 1 | 1.51e6 | 1.51e6 | 1.00e6 | 1.09e6 | inactive |
| qless | 2 | 1.58e6 | 1.58e6 | 1.05e6 | 1.11e6 | inactive |
| CG11456 | 1 | 1.51e6 | 1.59e6 | 1.33e6 | 1.46e6 | inactive |
| Ptp52F (Protein tyrosine phosphatase 52F) | 1 | 1.45e6 | 1.55e6 | 1.18e6 | 1.27e6 | inactive |
| jet (jetlag) | 1 | 1.26e6 | 1.38e6 | 5.70e5 | 3.70e5 | inactive |
| dpr11 (defective proboscis extension response 11) | 1 | 1.44e6 | 1.54e6 | 1.16e6 | 1.28e6 | inactive |
| dpr11 (defective proboscis extension response 11) | 2 | 1.52e6 | 1.59e6 | 1.27e6 | 1.39e6 | inactive |
| dpr11 (defective proboscis extension response 11) | 3 | 1.37e6 | 1.55e6 | 1.22e6 | 1.33e6 | inactive |
| Osi1 (Osiris 1) | 1 | 1.73e6 | 2.05e6 | 1.24e6 | 1.38e6 | inactive |
| Dim1 | 1 | 1.45e6 | 1.39e6 | 9.31e5 | 1.08e6 | inactive |
| jim | 1 | 1.42e6 | 1.46e6 | 1.31e6 | 1.30e6 | inactive |
| Nmda1 (N-methyl-D-aspartate receptor-associated protein) | 1 | 1.44e6 | 1.56e6 | 1.26e6 | 1.32e6 | inactive |
| jus (julius seizure) | 1 | 1.27e6 | 1.28e6 | 7.00e5 | 7.55e5 | inactive |
| jus (julius seizure) | 2 | 1.45e6 | 1.50e6 | 1.02e6 | 1.14e6 | inactive |
| Mks1 (Meckel syndrome, type 1) | 1 | 1.59e6 | 1.62e6 | 1.13e6 | 1.28e6 | inactive |
| zyd (zydeco) | 1 | 1.54e6 | 1.59e6 | 1.09e6 | 1.21e6 | inactive |
| CG1271 | 1 | 1.26e6 | 1.36e6 | 1.18e6 | 6.93e5 | inactive |
| CCT6 (Chaperonin containing TCP1 subunit 6) | 1 | 5.15e5 | – | 8.97e5 | – | inactive |
| Cdc5 (Cell division cycle 5) | 1 | 1.28e6 | 1.38e6 | 1.03e6 | 1.12e6 | inactive |
| moon (moonshiner) | 1 | 1.57e6 | 1.47e6 | 1.07e6 | 1.21e6 | inactive |
| CG3918 | 1 | 2.40e5 | – | 5.03e5 | – | active |
| CG14147 | 1 | 1.41e6 | 1.30e6 | 1.29e6 | 1.44e6 | inactive |
| CG42712 (retired record) | 1 | 1.47e6 | 1.58e6 | 1.07e6 | 1.18e6 | inactive |
| CG14995 | 1 | 1.16e6 | 1.24e6 | 6.93e5 | 7.59e5 | inactive |
| ECSIT | 1 | 1.38e6 | 1.55e6 | 1.24e6 | 1.32e6 | inactive |
| PheRS-m (Phenylalanyl-tRNA synthetase, mitochondrial) | 1 | 1.48e6 | 1.50e6 | 1.20e6 | 1.20e6 | inactive |
| Syx13 (Syntaxin 13) | 1 | 1.17e6 | 1.21e6 | 1.21e6 | 1.29e6 | inactive |
| CG14132 | 1 | 1.30e6 | 1.40e6 | 1.18e6 | 1.30e6 | inactive |
| mop (myopic) | 1 | 1.29e6 | 1.32e6 | 1.16e6 | 1.21e6 | inactive |
| phyl (phyllopod) | 1 | 1.50e6 | 1.57e6 | 1.14e6 | 1.28e6 | inactive |
| CG11404 | 1 | 1.86e6 | 1.99e6 | 1.34e6 | 1.44e6 | inactive |
| CG1764 | 1 | 6.18e5 | – | 8.79e5 | – | inactive |
| pad (poils au dos) | 1 | 1.24e6 | 1.24e6 | 1.13e6 | 1.22e6 | inactive |
| RpS4 (Ribosomal protein S4) | 1 | 8.46e5 | 8.49e5 | 7.34e5 | 8.80e5 | active |
| CG30479 | 1 | 1.55e6 | 1.60e6 | 1.30e6 | 1.37e6 | inactive |
| PI31 (Proteasome inhibitor 31 kDa) | 1 | 1.39e6 | 1.48e6 | 1.11e6 | 1.17e6 | inactive |
| IntS4 (Integrator 4) | 1 | 7.62e5 | – | 7.54e5 | – | inactive |
| CG16974 | 1 | 1.50e6 | 1.67e6 | 1.33e6 | 1.35e6 | inactive |
| Rnmt (RNA guanine-7 methyltransferase) | 1 | 1.54e6 | 1.60e6 | 1.26e6 | 1.36e6 | inactive |
| bma (black match) | 1 | 1.30e6 | 1.29e6 | 1.34e6 | 1.39e6 | inactive |
| bma (black match) | 2 | 1.22e6 | 1.29e6 | 1.37e6 | 1.33e6 | inactive |
| csul (capsuleen) | 1 | 1.48e6 | 1.59e6 | 1.16e6 | 1.27e6 | inactive |
| CG12237 | 1 | 1.54e6 | 1.61e6 | 1.03e6 | 1.19e6 | inactive |
| Tbc1d22 (TBC1 domain family member 22) | 1 | 1.57e6 | 1.56e6 | 1.25e6 | 1.31e6 | inactive |
| rtp (retinophilin) | 1 | 1.66e6 | 1.63e6 | 1.32e6 | 1.35e6 | inactive |
| Qsox2 (Quiescin sulfhydryl oxidase 2) | 1 | 1.49e6 | 1.52e6 | 1.29e6 | 1.34e6 | inactive |
| kek3 (kekkon 3) | 1 | 1.24e6 | 1.28e6 | 1.05e6 | 1.13e6 | inactive |
| Mhc (Myosin heavy chain) | 1 | 1.59e6 | 1.68e6 | 1.12e6 | 1.21e6 | inactive |
| CG14453 | 1 | 1.38e6 | 1.35e6 | 1.03e6 | 1.11e6 | inactive |
| mEFTu2 (mitochondrial translation elongation factor Tu 2) | 1 | 1.19e6 | 1.41e6 | 1.05e6 | 1.10e6 | inactive |
| Gdap1 | 1 | 1.52e6 | 1.38e6 | 1.18e6 | 1.20e6 | inactive |
| CG6614 | 1 | 1.34e6 | 1.39e6 | 1.03e6 | 1.17e6 | inactive |
| karr | 1 | 1.50e6 | 1.49e6 | 1.06e6 | 1.18e6 | inactive |
| SCOT (Succinyl-CoA:3-ketoacid CoA transferase) | 1 | 1.33e6 | 1.39e6 | 1.16e6 | 1.22e6 | inactive |
| rhea | 1 | 1.31e6 | 1.39e6 | 1.15e6 | 1.18e6 | inactive |
| Loxl1 (Lysyl oxidase-like 1) | 1 | 1.54e6 | 1.59e6 | 1.04e6 | 1.11e6 | inactive |
| CG10962 | 1 | 5.74e5 | – | 8.95e5 | – | inactive |

Sorted by “Kc cell number, rep 1” (high to low): 5 of the entries above
| gene | dsRNA no. | Kc cell number, rep 1 | Kc cell number, rep 2 | S2R+ cell number, rep 1 | S2R+ cell number, rep 2 | call |
| --- | --- | --- | --- | --- | --- | --- |
| Gdap1 | 1 | 1.52e6 | 1.38e6 | 1.18e6 | 1.20e6 | inactive |
| karr | 1 | 1.50e6 | 1.49e6 | 1.06e6 | 1.18e6 | inactive |
| CG6614 | 1 | 1.34e6 | 1.39e6 | 1.03e6 | 1.17e6 | inactive |
| SCOT (Succinyl-CoA:3-ketoacid CoA transferase) | 1 | 1.33e6 | 1.39e6 | 1.16e6 | 1.22e6 | inactive |
| mEFTu2 (mitochondrial translation elongation factor Tu 2) | 1 | 1.19e6 | 1.41e6 | 1.05e6 | 1.10e6 | inactive |
